Results are given in words; binding and its absence hold for the method and conditions named. Binding seen in cells or lysates may run through a third protein. Some entries that bind do so weakly or less than the wild type.

Amino acid sequences for entries named in this document (tags omitted). A change or cut given only in a name is not applied to a line headed by its entry.
UniProt Q8N884: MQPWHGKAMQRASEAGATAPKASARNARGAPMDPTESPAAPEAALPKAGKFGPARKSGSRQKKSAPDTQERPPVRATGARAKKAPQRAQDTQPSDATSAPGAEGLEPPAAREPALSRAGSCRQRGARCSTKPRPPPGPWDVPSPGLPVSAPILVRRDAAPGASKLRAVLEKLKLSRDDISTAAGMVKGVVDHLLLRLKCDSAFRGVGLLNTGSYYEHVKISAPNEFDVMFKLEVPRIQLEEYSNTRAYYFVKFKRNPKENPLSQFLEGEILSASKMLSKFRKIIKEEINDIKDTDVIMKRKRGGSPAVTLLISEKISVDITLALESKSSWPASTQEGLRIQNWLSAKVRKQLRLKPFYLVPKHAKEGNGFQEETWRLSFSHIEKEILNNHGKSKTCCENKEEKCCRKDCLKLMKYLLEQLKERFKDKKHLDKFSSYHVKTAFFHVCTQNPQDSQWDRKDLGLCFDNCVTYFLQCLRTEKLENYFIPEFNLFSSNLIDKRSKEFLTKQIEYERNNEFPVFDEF
UniProt Q92793: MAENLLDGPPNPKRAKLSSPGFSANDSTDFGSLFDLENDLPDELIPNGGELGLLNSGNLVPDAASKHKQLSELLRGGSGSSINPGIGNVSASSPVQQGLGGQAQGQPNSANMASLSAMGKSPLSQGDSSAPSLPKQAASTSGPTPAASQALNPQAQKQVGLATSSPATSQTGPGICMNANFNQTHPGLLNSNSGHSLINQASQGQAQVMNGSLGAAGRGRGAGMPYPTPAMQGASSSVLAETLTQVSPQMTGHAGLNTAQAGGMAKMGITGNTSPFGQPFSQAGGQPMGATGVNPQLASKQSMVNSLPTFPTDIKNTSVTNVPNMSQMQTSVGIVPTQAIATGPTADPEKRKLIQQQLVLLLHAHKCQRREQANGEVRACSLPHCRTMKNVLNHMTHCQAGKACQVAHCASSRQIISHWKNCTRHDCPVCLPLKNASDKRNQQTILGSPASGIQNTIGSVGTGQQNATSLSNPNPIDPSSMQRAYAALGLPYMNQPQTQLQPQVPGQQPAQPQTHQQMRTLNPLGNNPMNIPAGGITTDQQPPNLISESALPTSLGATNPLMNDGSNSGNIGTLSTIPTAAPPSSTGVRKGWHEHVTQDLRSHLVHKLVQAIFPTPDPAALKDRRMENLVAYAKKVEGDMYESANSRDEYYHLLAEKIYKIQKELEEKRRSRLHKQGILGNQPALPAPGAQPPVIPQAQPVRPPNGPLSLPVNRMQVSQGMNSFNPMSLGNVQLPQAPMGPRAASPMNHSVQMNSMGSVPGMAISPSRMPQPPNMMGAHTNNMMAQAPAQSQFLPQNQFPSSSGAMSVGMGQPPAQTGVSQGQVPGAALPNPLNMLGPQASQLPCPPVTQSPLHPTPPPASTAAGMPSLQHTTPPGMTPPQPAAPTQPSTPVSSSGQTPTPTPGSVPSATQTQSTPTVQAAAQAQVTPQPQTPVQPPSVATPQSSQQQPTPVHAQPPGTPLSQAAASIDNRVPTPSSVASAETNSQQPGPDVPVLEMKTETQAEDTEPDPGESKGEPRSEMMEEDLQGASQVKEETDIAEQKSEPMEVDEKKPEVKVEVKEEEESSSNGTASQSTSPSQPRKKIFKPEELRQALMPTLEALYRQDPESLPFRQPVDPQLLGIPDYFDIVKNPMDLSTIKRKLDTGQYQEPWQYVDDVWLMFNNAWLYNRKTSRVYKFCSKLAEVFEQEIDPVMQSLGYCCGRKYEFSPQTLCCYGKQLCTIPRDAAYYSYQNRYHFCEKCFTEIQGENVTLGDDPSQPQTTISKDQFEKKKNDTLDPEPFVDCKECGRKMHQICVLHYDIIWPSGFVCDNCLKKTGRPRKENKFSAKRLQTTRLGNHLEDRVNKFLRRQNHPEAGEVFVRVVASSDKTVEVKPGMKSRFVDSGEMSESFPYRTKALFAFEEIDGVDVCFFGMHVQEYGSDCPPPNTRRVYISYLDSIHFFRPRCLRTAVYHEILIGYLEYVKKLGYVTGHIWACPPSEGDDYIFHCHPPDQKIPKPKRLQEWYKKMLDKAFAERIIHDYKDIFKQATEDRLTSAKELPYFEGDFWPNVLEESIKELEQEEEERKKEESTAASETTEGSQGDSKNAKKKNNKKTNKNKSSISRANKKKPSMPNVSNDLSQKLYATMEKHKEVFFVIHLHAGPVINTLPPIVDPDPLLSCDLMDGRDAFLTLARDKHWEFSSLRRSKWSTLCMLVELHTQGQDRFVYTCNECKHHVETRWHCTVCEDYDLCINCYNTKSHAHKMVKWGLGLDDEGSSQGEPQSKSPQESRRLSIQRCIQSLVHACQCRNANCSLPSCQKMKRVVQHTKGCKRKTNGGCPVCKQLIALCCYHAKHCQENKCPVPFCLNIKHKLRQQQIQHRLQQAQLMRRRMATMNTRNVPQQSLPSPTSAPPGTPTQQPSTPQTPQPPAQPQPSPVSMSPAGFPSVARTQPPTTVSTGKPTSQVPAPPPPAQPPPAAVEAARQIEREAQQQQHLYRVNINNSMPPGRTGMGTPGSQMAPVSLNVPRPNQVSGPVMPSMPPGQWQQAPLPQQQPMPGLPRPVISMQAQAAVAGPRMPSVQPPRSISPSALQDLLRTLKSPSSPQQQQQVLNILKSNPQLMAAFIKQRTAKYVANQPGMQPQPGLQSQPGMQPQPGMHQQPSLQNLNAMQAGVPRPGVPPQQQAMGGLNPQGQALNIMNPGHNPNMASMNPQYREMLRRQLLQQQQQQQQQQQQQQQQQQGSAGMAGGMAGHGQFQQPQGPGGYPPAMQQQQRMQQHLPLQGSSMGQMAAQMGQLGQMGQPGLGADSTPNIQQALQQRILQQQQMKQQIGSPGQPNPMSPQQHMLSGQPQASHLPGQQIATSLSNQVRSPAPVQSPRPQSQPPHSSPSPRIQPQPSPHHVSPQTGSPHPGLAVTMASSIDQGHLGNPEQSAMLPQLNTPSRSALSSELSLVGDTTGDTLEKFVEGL
UniProt P09874: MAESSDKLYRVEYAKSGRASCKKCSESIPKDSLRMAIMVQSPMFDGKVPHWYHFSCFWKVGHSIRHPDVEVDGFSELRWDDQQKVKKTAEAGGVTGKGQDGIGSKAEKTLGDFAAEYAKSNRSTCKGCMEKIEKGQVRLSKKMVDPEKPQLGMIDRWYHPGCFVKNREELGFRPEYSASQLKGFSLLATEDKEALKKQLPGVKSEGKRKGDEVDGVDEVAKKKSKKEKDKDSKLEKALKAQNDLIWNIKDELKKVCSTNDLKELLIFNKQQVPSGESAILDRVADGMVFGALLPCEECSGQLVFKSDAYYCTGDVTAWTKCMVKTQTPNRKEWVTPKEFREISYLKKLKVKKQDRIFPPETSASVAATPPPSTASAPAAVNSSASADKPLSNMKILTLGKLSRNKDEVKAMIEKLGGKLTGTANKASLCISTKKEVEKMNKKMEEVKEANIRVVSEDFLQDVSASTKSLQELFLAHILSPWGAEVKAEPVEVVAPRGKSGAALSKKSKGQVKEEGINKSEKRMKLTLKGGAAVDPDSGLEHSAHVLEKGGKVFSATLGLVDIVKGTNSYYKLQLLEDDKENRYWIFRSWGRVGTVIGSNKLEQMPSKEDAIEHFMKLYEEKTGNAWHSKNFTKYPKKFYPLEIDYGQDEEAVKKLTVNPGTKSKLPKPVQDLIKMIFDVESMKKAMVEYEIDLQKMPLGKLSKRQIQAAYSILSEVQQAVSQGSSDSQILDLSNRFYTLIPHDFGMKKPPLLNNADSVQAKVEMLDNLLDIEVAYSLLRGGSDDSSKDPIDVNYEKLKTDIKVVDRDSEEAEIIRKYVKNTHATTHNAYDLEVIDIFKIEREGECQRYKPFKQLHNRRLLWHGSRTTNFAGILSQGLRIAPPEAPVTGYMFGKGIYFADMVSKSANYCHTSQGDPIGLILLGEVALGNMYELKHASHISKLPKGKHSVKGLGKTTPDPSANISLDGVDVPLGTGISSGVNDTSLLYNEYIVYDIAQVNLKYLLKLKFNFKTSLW

Drawing on publication PMC11345394, this text covers binding for three substances.

Experiment [1] addresses cyclic GMP-AMP synthase (cGAS), endogenous (human (endogenous in HeLa)) (UniProt Q8N884). The experiment in a line: co-IP; endogenous proteins from HeLa lysate, immunoprecipitated with anti-cGAS or anti-CBP antibody; NETN buffer (300 mM NaCl, 20 mM Tris-base, 1 mM EDTA, 0.5% NP-40), 4 °C, 6 h; immunoblot. For orientation: A western blot detects proteins with antibodies after separation by electrophoresis.

Another experiment has as its target full-length Flag-cGAS (UniProt Q8N884). The experiment in a line: co-IP; anti-Flag immunoprecipitates of HeLa cells transfected with Flag-cGAS constructs; partner detected by immunoblot; without and at the indicated times after 8 Gy γ-ray; NETN buffer (300 mM NaCl), 4 °C.
Experiment [2] concerns the target CREB-binding protein (CBP), endogenous (human (endogenous in HeLa)) (UniProt Q92793). The experiment in a line: co-IP; endogenous proteins from HeLa lysate, immunoprecipitated with anti-cGAS or anti-CBP antibody; NETN buffer (300 mM NaCl, 20 mM Tris-base, 1 mM EDTA, 0.5% NP-40), 4 °C, 6 h; immunoblot.
The next experiment addresses Flag-cGAS K254R mutant (UniProt Q8N884). The experiment can be described thus: co-IP; anti-Flag immunoprecipitates of HeLa cells transfected with Flag-cGAS constructs; partner detected by immunoblot; without and at the indicated times after 8 Gy γ-ray; NETN buffer (300 mM NaCl), 4 °C.

Consider “CREB-binding protein (CBP), endogenous (from UniProt Q92793 1-2442)”, for which the binding entry (in experiment [1]; in the experiment with full-length Flag-cGAS) was “binds” each time. In the case of “cyclic GMP-AMP synthase (cGAS), endogenous (from UniProt Q8N884 1-522)”, the binding result in experiment [2] was “binds”.

As for “PARP1, endogenous (from UniProt P09874 1-1014)”, the binding entry with Flag-cGAS K254R mutant was “binds”.
